Experimental data from the supplement of paper PMC12873370.
The list shows a part of the results. Many values rest on one well or one pass, so single values are uncertain.

Test system: MEPP (mouse ovarian epithelium Trp53/Pten KO)
Assay: cell viability relative to untreated (fraction); higher = less growth inhibition
Details: 5 µM; 3 days

Structure (SMILES)	cell viability
N=C(N)NS(=O)(=O)c1ccc(N)cc1	1.19
NC[C@H]1CC[C@H](C(=O)O)CC1	1.46
Cc1cc(O)c2c(c1)C(=O)c1cccc(O)c1C2=O	0.918
CC(C)[C@@H](C)[C@@H](O)[C@H](O)[C@@H](C)[C@H]1CC[C@H]2[C@@H]3COC(=O)[C@H]4C[C@H](O)[C@H](O)C[C@]4(C)[C@H]3CC[C@]12C	1.1
COc1ccc(-c2cc(=O)c3c(O)c(OC)c(O)c(OC)c3o2)cc1	1.29
O=C(O)/C=C/C=C/C(=O)O	1.06
CC(CC(=O)O)C(=O)O (stereo not drawn)	0.941
CC1(C)CC[C@]2(C(=O)O)CC[C@]3(C)C(=CC[C@@H]4[C@@]5(C)CC[C@H](O[C@@H]6O[C@H](C(=O)O)[C@@H](O)[C@H](O[C@@H]7OC[C@@H](O)[C@H](O)[C@H]7O)[C@H]6O)C(C)(C)[C@@H]5CC[C@]43C)[C@@H]2C1	0.719
O=C1c2c(O)cccc2Cc2cccc(O)c21	0.98
CCOC(=O)C1=C[C@]2(CC)CCCN3CCc4c(n1c1ccccc41)[C@@H]32	0.861
CC[C@H]1OC(=O)[C@H](C)[C@@H](O[C@H]2C[C@@](C)(OC)[C@@H](O)[C@H](C)O2)[C@H](C)[C@@H](O[C@@H]2O[C@H](C)C[C@H](N(C)C)[C@H]2O)[C@](C)(OC)C[C@@H](C)C(=O)[C@H](C)[C@@H](O)[C@]1(C)O	1.07
O=c1c(O[C@@H]2O[C@H](CO)[C@H](O)[C@H](O)[C@H]2O)c(-c2ccc(O)c(O)c2)oc2cc(O)cc(O)c12	0.865
CO/N=C(\C(=O)N[C@@H]1C(=O)N2C(C(=O)O)=CCS[C@H]12)c1csc(N)n1	1.27

In another format: entries from further up.
Structure (SMILES) | cell viability
CCOC(=O)C1=C[C@]2(CC)CCCN3CCc4c(n1c1ccccc41)[C@@H]32 | 0.861
CC[C@H]1OC(=O)[C@H](C)[C@@H](O[C@H]2C[C@@](C)(OC)[C@@H](O)[C@H](C)O2)[C@H](C)[C@@H](O[C@@H]2O[C@H](C)C[C@H](N(C)C)[C@H]2O)[C@](C)(OC)C[C@@H](C)C(=O)[C@H](C)[C@@H](O)[C@]1(C)O | 1.07
